## Percent effect of library compounds

Sequences of proteins named here, by UniProt entry; tags and fusion partners are left off. Residues count along the entry.
UniProt Q4DA54, 1-478: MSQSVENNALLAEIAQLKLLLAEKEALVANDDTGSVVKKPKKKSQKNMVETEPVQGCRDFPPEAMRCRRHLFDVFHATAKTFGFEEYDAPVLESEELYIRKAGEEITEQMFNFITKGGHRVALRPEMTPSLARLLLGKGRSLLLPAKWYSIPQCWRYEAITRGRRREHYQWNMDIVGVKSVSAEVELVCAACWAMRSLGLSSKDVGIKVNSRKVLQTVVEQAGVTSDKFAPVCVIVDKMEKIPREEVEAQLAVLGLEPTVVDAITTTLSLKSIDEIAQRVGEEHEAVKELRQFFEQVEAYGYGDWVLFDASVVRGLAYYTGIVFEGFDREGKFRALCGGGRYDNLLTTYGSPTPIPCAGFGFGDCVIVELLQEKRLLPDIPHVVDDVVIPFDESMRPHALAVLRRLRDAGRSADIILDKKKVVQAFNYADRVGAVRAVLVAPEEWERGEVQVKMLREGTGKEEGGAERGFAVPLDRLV
UniProt P9WPC5, whole entry: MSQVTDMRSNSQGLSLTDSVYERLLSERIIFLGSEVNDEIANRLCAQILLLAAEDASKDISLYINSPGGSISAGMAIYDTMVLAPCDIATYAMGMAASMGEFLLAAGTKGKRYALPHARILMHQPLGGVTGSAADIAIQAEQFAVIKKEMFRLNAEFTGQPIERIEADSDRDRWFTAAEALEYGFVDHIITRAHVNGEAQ
UniProt P9WPC3, whole entry partner: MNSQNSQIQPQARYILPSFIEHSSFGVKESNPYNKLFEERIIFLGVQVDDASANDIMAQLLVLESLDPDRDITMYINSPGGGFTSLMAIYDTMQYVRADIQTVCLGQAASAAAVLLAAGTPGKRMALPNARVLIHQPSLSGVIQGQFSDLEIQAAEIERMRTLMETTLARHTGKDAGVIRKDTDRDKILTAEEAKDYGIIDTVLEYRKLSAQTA
UniProt Q8IDJ8, 1-583: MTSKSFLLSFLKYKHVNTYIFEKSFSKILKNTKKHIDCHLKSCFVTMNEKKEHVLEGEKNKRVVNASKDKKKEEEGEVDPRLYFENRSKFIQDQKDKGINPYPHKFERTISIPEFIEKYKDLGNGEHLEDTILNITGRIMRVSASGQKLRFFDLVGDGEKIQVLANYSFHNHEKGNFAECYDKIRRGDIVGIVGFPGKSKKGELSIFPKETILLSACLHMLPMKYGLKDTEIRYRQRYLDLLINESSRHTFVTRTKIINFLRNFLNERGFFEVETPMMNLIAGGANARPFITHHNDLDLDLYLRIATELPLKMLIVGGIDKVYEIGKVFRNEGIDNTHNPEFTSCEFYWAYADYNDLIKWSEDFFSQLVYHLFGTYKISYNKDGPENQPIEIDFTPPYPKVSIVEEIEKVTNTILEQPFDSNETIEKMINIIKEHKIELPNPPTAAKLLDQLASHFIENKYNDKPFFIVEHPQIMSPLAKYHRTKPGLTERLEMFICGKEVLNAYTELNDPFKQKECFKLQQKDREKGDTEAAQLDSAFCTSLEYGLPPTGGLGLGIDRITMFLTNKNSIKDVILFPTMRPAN
UniProt A4I591, 1-473: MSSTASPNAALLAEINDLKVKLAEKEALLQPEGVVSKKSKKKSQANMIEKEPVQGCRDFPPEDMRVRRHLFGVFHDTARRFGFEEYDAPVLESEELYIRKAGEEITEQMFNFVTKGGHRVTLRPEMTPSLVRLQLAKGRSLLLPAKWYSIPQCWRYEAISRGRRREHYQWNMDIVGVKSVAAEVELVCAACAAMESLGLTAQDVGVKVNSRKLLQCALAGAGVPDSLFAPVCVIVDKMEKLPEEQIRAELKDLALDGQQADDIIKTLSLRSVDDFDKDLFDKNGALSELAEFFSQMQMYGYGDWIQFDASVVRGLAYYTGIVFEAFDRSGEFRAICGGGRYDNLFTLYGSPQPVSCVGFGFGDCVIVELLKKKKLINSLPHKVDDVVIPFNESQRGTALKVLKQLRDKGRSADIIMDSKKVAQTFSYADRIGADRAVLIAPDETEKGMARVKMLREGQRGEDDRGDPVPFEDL

Measurements from “University of Dundee, Small-Polar-MMV Screening Library” (2021), ChEMBL document CHEMBL3988442.

TcHisRS: 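Enzyme assay of histidyl-tRNA synthetase; the read-out is not stated. Target: Histidine-tRNA ligase, Trypanosoma cruzi CL Brener (UniProt Q4DA54). Tested at 30 µM. The record gives no direction; compounds that gave an IC50 in retests scored well above the rest, so higher reads as stronger inhibition. About 69,000 compounds were tested under these conditions; 0.045% (about 31) showed 50% or more at least once.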
ClpP1P2: 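Protease assay of ClpP1P2, read by the AMC dye that it sets free. Target: ClpP1P2, Mycobacterium tuberculosis (UniProt P9WPC5 and UniProt P9WPC3). Concentration: 50 µM. Higher reads as stronger inhibition, judged from the few compounds that gave an IC50. Most other retested compounds had strongly negative values. Of about 69,000 compounds tested this way, about 10 (0.015%) reached 50% or more in at least one test.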
PfKRS1: 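Enzyme assay of the cytosolic lysyl-tRNA synthetase in 384-well plates, read by luminescence. Target: Lysine-tRNA ligase, Plasmodium falciparum 3D7 (UniProt Q8IDJ8). Tested at 30 µM. Direction is inferred from only a few compounds that gave an IC50; most scored high, so higher reads as stronger inhibition. About 69,000 compounds were tested under these conditions; 0.071% (about 49) showed 50% or more at least once.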
LiHisRS: 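Enzyme assay of histidyl-tRNA synthetase; the read-out is not stated. Target: Histidine-tRNA ligase, Leishmania infantum (UniProt A4I591). Tested at 30 µM. The record gives no direction; compounds that gave an IC50 in retests scored well above the rest, so higher reads as stronger inhibition. The assay is labelled LdHisRS but filed under L. infantum. About 69,000 compounds were tested under these conditions; 0.6% (about 410) showed 50% or more at least once.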

Results are given as percent effect.
The record does not define 0% and 100%; most values in the screen are far below 50% and negative numbers occur (in some assays of this library far below -100).
The compounds are a random part of those screened.

structure | TcHisRS | ClpP1P2 | PfKRS1 | LiHisRS
Cc1noc(CCCC(=O)N2CSCC2C(=O)NCC2CC2)n1 (stereo not shown) | 3.03% | -9.494% | -2.236% | 11.11%
Cc1ncsc1C(=O)OCCN1CCCc2ccccc21 | 6.468% | -13.69% | -4.648% | 15.66%
Cc1nc[nH]c1C(=O)N1CCCC2(CN(C)C(=O)O2)C1 (stereo not shown) | 1.01% | -16.58% | 6.931% | 14.75%
CC(C)CCN(C)C(=O)c1nc(S(C)(=O)=O)n2ccccc12 | 0.7634% | 3.533% | 2.508% | -2.128%
O=C(c1ccsc1)N1C[C@@H]2OCCN(CCN3CCCC3)[C@@H]2C1 | 8.824% | 17.02% | 0.1791% | 2%
COc1cc(OC)nc(N2CCC3(CC2)OCCCC3O)n1 (stereo not shown) | 0% | -7.489% | 24.57% | 11.57%
Cc1nc(-c2ccccc2)n(CC(=O)NC(C2CC2)C2CC2)n1 | 2.941% | -3.899% | 3.753% | 21.01%
O=C(NC1CCc2ccccc2C1)C1CCN(Cc2ccco2)CC1 (stereo not shown) | 8.911% | -10.37% | 1.586% | 22.83%
COc1ccc(CNC(=O)NCc2c(C)cc(C)[nH]c2=O)cc1 | 0% | -2.267% | -1.341% | 16.67%
CS(=O)(=O)NCc1cc2n(n1)CCCN(Cc1ccc(Cl)s1)C2 | 0% | 1.444% | 14.28% | 11.11%
O=C(Cc1ccc(-n2cccn2)cc1)N1CCN2CCCCC2C1 (stereo not shown) | 1.887% | -0.9095% | 6.017% | 14.86%
CCn1cnc(NC(=O)N2CCCC(c3ccccc3)CC2)n1 (stereo not shown) | 3.448% | -6.128% | 1.595% | -35.53%
CC(Cc1ccco1)NC(=O)CSc1nnc[nH]1 (stereo not shown) | -0.8403% | 10.13% | 4.518% | 19.3%
CC(C)c1nn(C)c(N(C)C)c1CNCc1ccccc1CN(C)C | -2.662% | 5.375% | 2.51% | 47.2%
CC(C)CN1C(=O)C2(CCCC2)NC1c1cccnc1 (stereo not shown) | 0% | -4.439% | -0.7306% | 11.61%
Cc1[nH]ccc1C(=O)N[C@H]1CN(S(C)(=O)=O)C[C@@H]1C1CC1 | 2.463% | -2.082% | 4.515% | 1.316%
CC1(C)CNC(=O)CN(C(=O)CCc2ccccc2)C1 | 5.78% | -4.467% | 3.354% | 18.56%
COCCN1CCC2(CCN(Cc3cccs3)CC2)C1=O | 6.468% | -2.822% | -0.9124% | -2.778%
CN(C)c1nc2c(c(=O)[nH]1)Cc1ccccc1OC2 | 11.9% | -2.168% | -3.202% | 15.5%
Cn1c(Cn2ccnc2)nnc1C1CCCN(Cc2ccncc2)C1 (stereo not shown) | -5.814% | 0.527% | 0.8565% | 13.11%
Cc1nccc(CNS(=O)(=O)N2CCCC2c2ccc(C)o2)n1 (stereo not shown) | -0.5405% | -18.65% | 4.63% | 13.68%
CCN1CCN(c2ccccc2NC(=O)N(C)C2CCSC2)CC1 (stereo not shown) | -26.32% | 1.792% | 8.559% | -144.7%
O=C(CN1CCCC1c1noc(C2CC2)n1)NCCc1ccsc1 (stereo not shown) | 8.187% | 10.38% | 0.8436% | 14.55%
CN1CCOC(CNCC(=O)NCCc2ccc(F)cc2)C1 (stereo not shown) | 3.867% | -0.0534% | 0.3355% | 3.109%
CCN1CCN(C2CCN(Cc3c(C)noc3C)CC2)C1=O | 2.256% | -1.316% | 8.829% | 16.85%
Cc1nn(C2CCS(=O)(=O)C2)c(O)c1Cc1ccccc1Cl (stereo not shown) | 1.754% | -8.562% | -0.8001% | 2.632%
O=C(C1CC1)N1CCC2(COCc3cnc(N4CCOCC4)nc32)C1 (stereo not shown) | 7.317% | -0.9127% | 7.083% | 17.95%
O=C(NCc1ccncc1)N1CC(Cc2ccccc2F)C1 | 7.182% | -14.96% | 6.833% | 16.87%
c1cnc(N2CCC3(CC2)CN(CC2CC2)c2ccccc23)nc1 | 66.17% | -8.756% | -0.7423% | 70.73%
CCN(CCn1cccn1)C(=O)CN1C(=O)OC[C@@H]1c1ccccc1 | 2.703% | -8.253% | 9.282% | 10.26%
Cc1nc(CN2Cc3cn(C)nc3C(COCC3CC3)C2)cs1 (stereo not shown) | 1.97% | 11.02% | -3.948% | 14.71%
Cc1cc2nc(-c3ccccc3)cc(NCC3CCS(=O)(=O)C3)n2n1 (stereo not shown) | 7.328% | -60.29% | 4.71% | 24.05%
CCSc1ncc(CN2C[C@H]3CC[C@@H]2CN(C2CCOCC2)C3)cn1 | 3.896% | 12.55% | 3.191% | 21.67%
Cc1ccc(NC(=O)CNC(C)Cc2ccsc2)cc1F (stereo not shown) | 7.407% | -5.881% | 6.721% | 11.76%
CCc1ncc2c(n1)CN(Cc1nnc(Cc3ccccc3)o1)CC2 | 20.12% | -54.2% | -1.419% | 31.19%
Cc1cccc(CCC(=O)Nc2cccnc2N2CCC(O)CC2)c1 | 10.99% | 14.46% | 0.8802% | 6.897%
CCc1ccccc1CNC(=O)CCc1cnn(C)c1 | 2.083% | 3.988% | -0.5447% | -2.083%

Some entries from above, unchanged:

structure	TcHisRS	ClpP1P2	PfKRS1	LiHisRS
CCN1CCN(C2CCN(Cc3c(C)noc3C)CC2)C1=O	2.256%	-1.316%	8.829%	16.85%
c1cnc(N2CCC3(CC2)CN(CC2CC2)c2ccccc23)nc1	66.17%	-8.756%	-0.7423%	70.73%
O=C(NC1CCc2ccccc2C1)C1CCN(Cc2ccco2)CC1 (stereo not shown)	8.911%	-10.37%	1.586%	22.83%